From paper PMC8196013

The chains behind the UniProt entries cited, without tags or fusion partners.
UniProt P0A8V2: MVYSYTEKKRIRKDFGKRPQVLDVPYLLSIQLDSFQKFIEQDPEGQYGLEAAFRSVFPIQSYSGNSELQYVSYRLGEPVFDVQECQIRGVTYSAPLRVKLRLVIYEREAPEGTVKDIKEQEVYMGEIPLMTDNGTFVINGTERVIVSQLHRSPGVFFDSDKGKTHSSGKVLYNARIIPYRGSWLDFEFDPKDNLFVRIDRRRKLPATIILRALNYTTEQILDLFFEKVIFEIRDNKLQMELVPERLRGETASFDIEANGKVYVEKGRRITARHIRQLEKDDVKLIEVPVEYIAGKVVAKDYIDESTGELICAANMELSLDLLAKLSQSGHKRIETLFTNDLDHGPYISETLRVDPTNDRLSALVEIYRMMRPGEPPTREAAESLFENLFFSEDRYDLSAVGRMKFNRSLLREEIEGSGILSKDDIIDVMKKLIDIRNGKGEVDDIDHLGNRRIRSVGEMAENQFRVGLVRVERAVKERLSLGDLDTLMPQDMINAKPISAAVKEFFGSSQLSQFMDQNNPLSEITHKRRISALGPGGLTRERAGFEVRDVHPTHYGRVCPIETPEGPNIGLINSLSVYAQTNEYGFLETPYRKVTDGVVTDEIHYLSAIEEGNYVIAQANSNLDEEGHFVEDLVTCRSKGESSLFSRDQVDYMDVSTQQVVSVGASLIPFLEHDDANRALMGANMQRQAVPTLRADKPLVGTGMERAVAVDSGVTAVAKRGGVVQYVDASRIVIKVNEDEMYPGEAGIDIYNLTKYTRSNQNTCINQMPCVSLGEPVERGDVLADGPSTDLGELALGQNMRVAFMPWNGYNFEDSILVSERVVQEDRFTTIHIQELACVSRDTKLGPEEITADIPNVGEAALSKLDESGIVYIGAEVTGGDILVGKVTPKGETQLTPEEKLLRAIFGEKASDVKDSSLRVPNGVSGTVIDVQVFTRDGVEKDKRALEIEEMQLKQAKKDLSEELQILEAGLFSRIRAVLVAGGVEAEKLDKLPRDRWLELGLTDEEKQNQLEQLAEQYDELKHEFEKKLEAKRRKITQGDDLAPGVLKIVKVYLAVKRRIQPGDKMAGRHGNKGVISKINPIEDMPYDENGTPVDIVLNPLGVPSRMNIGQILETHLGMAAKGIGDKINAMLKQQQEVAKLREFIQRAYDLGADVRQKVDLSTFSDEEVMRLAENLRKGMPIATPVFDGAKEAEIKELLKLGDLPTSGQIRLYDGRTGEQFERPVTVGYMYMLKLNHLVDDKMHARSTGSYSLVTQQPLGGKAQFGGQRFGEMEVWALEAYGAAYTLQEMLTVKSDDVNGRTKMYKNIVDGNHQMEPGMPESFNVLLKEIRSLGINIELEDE
UniProt P60240: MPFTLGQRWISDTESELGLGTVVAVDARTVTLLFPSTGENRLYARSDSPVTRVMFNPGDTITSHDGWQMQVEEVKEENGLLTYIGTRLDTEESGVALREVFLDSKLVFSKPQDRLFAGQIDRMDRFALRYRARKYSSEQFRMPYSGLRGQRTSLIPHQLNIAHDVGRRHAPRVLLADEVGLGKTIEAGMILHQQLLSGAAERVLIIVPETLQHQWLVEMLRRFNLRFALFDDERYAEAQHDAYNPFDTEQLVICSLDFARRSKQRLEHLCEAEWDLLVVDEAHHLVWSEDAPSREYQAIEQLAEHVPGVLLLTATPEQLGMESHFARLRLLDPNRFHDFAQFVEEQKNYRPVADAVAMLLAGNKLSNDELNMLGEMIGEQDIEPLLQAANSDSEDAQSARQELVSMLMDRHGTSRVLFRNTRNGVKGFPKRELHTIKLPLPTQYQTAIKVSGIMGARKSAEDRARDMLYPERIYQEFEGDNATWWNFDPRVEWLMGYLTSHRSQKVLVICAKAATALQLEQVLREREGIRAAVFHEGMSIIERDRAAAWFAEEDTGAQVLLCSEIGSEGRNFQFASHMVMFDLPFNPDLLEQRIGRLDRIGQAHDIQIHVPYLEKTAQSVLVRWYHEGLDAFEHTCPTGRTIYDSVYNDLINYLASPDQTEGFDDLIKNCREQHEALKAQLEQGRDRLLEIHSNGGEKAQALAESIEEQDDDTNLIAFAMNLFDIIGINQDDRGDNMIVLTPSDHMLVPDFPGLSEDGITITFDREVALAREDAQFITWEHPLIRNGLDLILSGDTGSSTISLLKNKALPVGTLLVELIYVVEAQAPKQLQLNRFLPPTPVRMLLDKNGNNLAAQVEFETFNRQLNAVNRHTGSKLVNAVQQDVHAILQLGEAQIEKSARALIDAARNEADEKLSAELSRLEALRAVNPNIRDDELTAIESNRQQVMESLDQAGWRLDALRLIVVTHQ

T1: YacL-SPA (E. coli K12) (UniProt P0A8E5)
T1 sequence: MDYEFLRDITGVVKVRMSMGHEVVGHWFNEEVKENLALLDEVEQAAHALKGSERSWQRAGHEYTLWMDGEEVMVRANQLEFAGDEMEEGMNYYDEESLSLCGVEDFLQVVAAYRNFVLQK

T2: SPA-tagged YacL (E. coli K12) (UniProt P0A8E5)
T2 sequence: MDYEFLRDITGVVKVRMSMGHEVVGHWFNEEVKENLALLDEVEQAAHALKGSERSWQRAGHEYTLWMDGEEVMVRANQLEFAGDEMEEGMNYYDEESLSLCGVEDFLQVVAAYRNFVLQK


Key:
NusG-SPA (E. coli K12) = NusG-SPA (E. coli K12) (UniProt P0AFG0); test: affinity purification with mass spectrometry; lysate of K12 strains with endogenous C-terminal SPA tag on anti-FLAG M2 agarose, eluted with TEV protease; LFQ against mock enrichment from K12 wild type, t-test 1% FDR, S0 of 2
RpoB-SPA (E. coli K12) = RpoB-SPA (E. coli K12) (UniProt P0A8V2); test: as above
YacL-SPA (E. coli K12) = molecular target: T1, YacL-SPA (E. coli K12); test: as above
[1] = molecular target: T2, SPA-tagged YacL (E. coli K12); test: affinity purification with mass spectrometry; lysates of K12 strains with endogenously C-terminal SPA-tagged yacL, nusG or rpoB on Anti-FLAG M2 agarose, 2 h at 4 °C, eluted with TEV protease; LFQ against K12 wildtype mock enrichment, 1% FDR
[2] = molecular target: SPA-tagged NusG (E. coli K12) (UniProt P0AFG0); test: as above
[3] = molecular target: SPA-tagged RpoB (E. coli K12) (UniProt P0A8V2); test: as above

| Molecule | binding (NusG-SPA (E. coli K12)) | binding (YacL-SPA (E. coli K12)) | further results |
| --- | --- | --- | --- |
| RapA (from UniProt P60240 1-968) | binds | binds | binding (RpoB-SPA (E. coli K12)): binds |
| NusA (from UniProt P0AFF6 1-495) | binds | binds | – |
| NusG (from UniProt P0AFG0 1-181) | – | – | binding [1]: binds |
| msyB (protein, UniProt P25738 1-124) MTMYATLEEAIDAAREEFLADNPGIDAEDANVQQFNAQKYVLQDGDIMWQVEFFADEGEEGECLPMLSGEAAQSVFDGDYDEIEIRQEWQEENTLHEWDEGEFQLEPPLDTEEGRAAADEWDER | binds | binds | – |
| GreB (protein, UniProt P30128 1-158) MKTPLVTREGYEKLKQELNYLWREERPEVTKKVTWAASLGDRSENADYQYNKKRLREIDRRVRYLTKCLENLKIVDYSPQQEGKVFFGAWVEIENDDGVTHRFRIVGYDEIFGRKDYISIDSPMARALLKKEVGDLAVVNTPAGEASWYVNAIEYVKP | binds | – | – |
| YacL (protein, UniProt P0A8E5 1-120) MDYEFLRDITGVVKVRMSMGHEVVGHWFNEEVKENLALLDEVEQAAHALKGSERSWQRAGHEYTLWMDGEEVMVRANQLEFAGDEMEEGMNYYDEESLSLCGVEDFLQVVAAYRNFVQQK | – | – | binding [2]: binds; binding [3]: binds |

No constants are given. Whether binding was seen depends on the method and setting. In cells and extracts the contact can be indirect. Here binding means that the protein was enriched with, or labelled near, the bait; the list need not be complete. For some assays here: Where a sequence is shown, tags or fusion partners need not be part of it.
